In patent US8680059B2, “Oligopeptide acetate and formulations thereof” (Biotempt B.V., priority 1998, dated 2014):
At least one peptide structure holds a part that was inferred or is arguable (an end, a ring closure or a residue). Peptide text beside a SMILES is read from it.

System: healthy male subjects challenged with LPS (4 ng/kg E. coli EC6)
Assay: Phase I human trial Part 2: LPS challenge pharmacodynamics
Format: in vivo

Compound: CC(C)[C@H](NC(=O)CNC(=O)[C@H](CCC(N)=O)NC(=O)[C@H](C)N)C(=O)O [EA-230, H-Ala-Gln-Gly-Val-OH.xAcOH] (H-AQGV-OH)
- Average concentration changes of IL-6, IL-8, TNF-α, and CRP (10 mg/kg 30 minutes after LPS 4 ng/kg, differences not significant): generally larger in the placebo subjects than in the active subjects
- decrease in blood pressure caused by LPS challenge (10 mg/kg after LPS): less marked in active than in placebo subjects
- increase in oral body temperature (10 mg/kg, 4.5 h after LPS challenge, placebo +1.6): +0.6 °C
- PD variables changes (cytokines, granulocytes, CRP), statistical comparison (at any time, except in 1 test out of the 84 performed): No significant difference between placebo and active subjects
